# Data from PubChem BioAssay AID540256 (National Center for Advancing Translational Sciences (NCATS), 2011).
# In all, about 300,000 compounds went through this assay and about 3,700 (1.2%) were called active. Inconclusive results, whose numbers are uncertain, are shown with a selection of clear calls. The call rests on the fitted dose curve; tested in HEK293 cells. Where the call is inconclusive, the potency comes from a doubtful curve fit.
# Assay: qHTS for Inhibitors of binding or entry into cells for Lassa Virus; further: nearly all actives have a fitted effect of over 50% in size
# Settings: Lassa virus pseudotype entry inhibition, cell reporter; activity change, negative = inhibition: at 37.9 µM (top of the series) unless noted
# On the % scale 0 is the no-effect control and ±100 the full control effect; potency means the concentration at half of the fitted maximal effect.
SMILES,Potency,"activity change, negative = inhibition"
O=S(=O)(NCC(c1ccco1)N1CCN(c2ccc(F)cc2)CC1)c1cc(F)ccc1F (stereo not given),"inconclusive: 14.1 µM [inhibitor, single point]",
CCC(=O)Nc1ccc(NC(=O)c2ccccn2)cn1,active: 10 µM,
NNc1nnc2c3cc(F)ccc3n(Cc3ccccc3)c2n1,"inconclusive: 7.08 µM [inhibitor, full curve, poor fit]",
CCN(CC)Cc1c(C(=O)OC(C)C)nnn1-c1nonc1N,"inconclusive: 35.5 µM [activator, partial curve, poor fit]",
Cc1cccc(OC(C)C(=O)N/N=C\c2ccncc2)c1 (stereo not given),,inactive: 18.5% [at 46.1 µM]
O=C(Nc1cnc2ccccc2c1)C1COc2ccccc2O1 (stereo not given),"inconclusive: 4.47 µM [activator, full curve, poor fit]",
O=C(NCCC1CC1(Cl)Cl)Nc1ccccc1 (stereo not given),,inactive: -0.604%
Cn1c(=O)c2c(-c3ccc(Cl)cc3)ccnc2n(C)c1=O,,inactive: 22.3% [at 46.1 µM]
Clc1cccc(Cl)c1CSc1cc2c(nn1)-c1ccccc1CC2,,inactive: -6.48%
COc1ccc(-c2cc(C(=O)Nc3c(C)nn(Cc4ccccc4)c3C)no2)cc1,"inconclusive: 6.51 µM [inhibitor, single point]",
COc1ccc(CN(CCC(c2ccccc2)c2ccco2)C(=O)c2ccco2)cc1 (stereo not given),"inconclusive: 12.6 µM [inhibitor, partial curve, poor fit]",
Oc1ccccc1-c1cc(-c2ccc3c(c2)OCCO3)n[nH]1,"inconclusive: 16.4 µM [inhibitor, single point]",
CN1CCN(/N=C/c2ccc(-c3ccccc3)cc2)CC1,"inconclusive: 25.1 µM [inhibitor, single point]",
Cc1cc2oc(C(=O)Nc3sc4c(c3C(=O)NCC3CCCO3)CCCC4)cc(=O)c2cc1C (stereo not given),,inactive: 14.5% [at 46.1 µM]
Cc1cccc(NC(=O)Cn2c(O)c(N=NC(N)=S)c3ccccc32)c1,"inconclusive: 5.01 µM [inhibitor, full curve, poor fit]",
CC1(C(=O)OCC(=O)Nc2ccc3ccccc3c2)CC1(Cl)Cl (stereo not given),"inconclusive: 35.5 µM [inhibitor, single point]",
Cc1cccc(NC(=O)NNS(=O)(=O)c2ccc(F)cc2)c1,"inconclusive: 4.11 µM [inhibitor, single point]",
O=[N+]([O-])c1cccc(-c2nnc3c4ccccc4c4ccccc4n23)c1,"inconclusive: 29.1 µM [inhibitor, single point]",
COC(=O)/C(=C\c1ccc2c(c1)c1ccccc1n2C)NC(=O)c1ccccc1,,inactive: 3.05%
COC(=O)C(CO)Nc1ncnc2onc(-c3ccc(F)cc3)c12 (stereo not given),"inconclusive: 0.794 µM [inhibitor, single point]",
O=C1C2C3CCCC3=C3CCCC3C2C(=O)N1c1cccc(Cl)c1 (stereo not given),,inactive: 15%
CCC(=O)Nc1ccc(C(=O)CSc2nnc(CNc3ccc(Cl)cc3)o2)cc1OC,"inconclusive: 25.9 µM [inhibitor, single point]",
COCC1CCN(Cc2nc(COc3ccccc3)no2)C1 (stereo not given),,inactive: -0.285% [at 46.1 µM]
COc1ccc2nc(N(Cc3cccnc3)C(=O)c3ccc(Cl)cc3)sc2c1,"inconclusive: 25.1 µM [inhibitor, single point]",

SMILES,Potency,"activity change, negative = inhibition"
CCOc1ccc2nc(SCC(=O)NCc3ccccc3OC)[nH]c2c1,"inconclusive: 35.5 µM [inhibitor, single point]",
CCN1CCN(CC(O)COC(C)C)CC1 (stereo not given),"inconclusive: 18.3 µM [activator, partial curve, poor fit]",
CCOC(=O)c1ccc(NC(=O)CSc2nc(NC(=O)c3ccccc3)c3c(C)c(C)oc3n2)cc1,"inconclusive: 16.4 µM [inhibitor, single point]",
COc1ccc(CCC(=O)N/N=C\c2cccs2)cc1,"inconclusive: 1.16 µM [inhibitor, full curve]",
Cc1cccc(NS(=O)(=O)c2ccc(C)c(C(=O)OCC(=O)Nc3cc(C)on3)c2)c1,active: 4.47 µM,
CCCCN(CC)CCCNC(=O)c1ccc2c(c1)N(CC)C(=O)c1ccccc1S2(=O)=O,"inconclusive: 0.282 µM [inhibitor, full curve, poor fit]",
CCC1Oc2ccccc2N(CC(=O)NCc2ccccc2)C1=O (stereo not given),"inconclusive: 35.5 µM [activator, single point]",
CS(=O)(=O)N1CCN(C(=O)CCc2ccccc2)CC1,"inconclusive: 1.26 µM [inhibitor, single point]",
C=C1CCC[C@]2(C)C[C@H]3OC(=O)C(CNC(CC)CO)[C@H]3CC12 (stereo not given in full),,inactive: -11.2%
CCOc1ccc(/C=C2\SC(=S)N(CCCC(=O)NCCCN3CCOCC3)C2=O)cc1,"inconclusive: 6.31 µM [inhibitor, partial curve, poor fit]",
Cc1cccc(-n2ncc3c2CCCC3NC(=O)CC(F)(F)F)c1C (stereo not given),,inactive: -21.2% [at 46.1 µM]
COCCn1c(=NC(=O)CSCC(=O)N2CCOCC2)sc2cc(C)ccc21,,inactive: -18.9%
CC(C(=O)Nc1cccc(Br)c1)c1ccc([N+](=O)[O-])cc1 (stereo not given),"inconclusive: 29.1 µM [activator, partial curve, poor fit]",
CCC1CCCN1Cn1cnc2c([nH]c3ccc(C)cc32)c1=O (stereo not given),"inconclusive: 31.6 µM [activator, single point]",
CC(C)c1ccc(C(=O)NC2=NCCS2)cc1,active: 16.4 µM,
CCNC(=S)Nc1ccc(Cl)c([N+](=O)[O-])c1,"inconclusive: 2.82 µM [inhibitor, partial curve, poor fit]",
CCC(=O)N1CCN(c2ccc(NC(=O)COc3ccccc3Cl)cc2)CC1,"inconclusive: 11.6 µM [inhibitor, partial curve, poor fit]",
COc1ccc(N2CCN(c3ncnc4c3nnn4Cc3ccccc3Cl)CC2)cc1,,inactive: 2.65%
O=C(CN(Cc1ccco1)C(=O)c1cccc(Cl)c1)Nc1c(Cl)cc(Cl)cc1Cl,"inconclusive: 32.6 µM [inhibitor, partial curve, poor fit]",
Cc1nn(CC(O)CN2c3ccccc3Sc3ccccc32)c(C)c1Br (stereo not given),"inconclusive: 35.5 µM [inhibitor, single point]",
O=C1C=C(NNC(=O)c2ccccc2Br)CCC1,"inconclusive: 0.326 µM [activator, partial curve]",
Cc1ccc(N(CC(=O)Nc2ccc(F)c(Cl)c2)S(=O)(=O)c2c(C)noc2C)cc1,"inconclusive: 18.3 µM [inhibitor, partial curve, poor fit]",
COc1ccc(/C(N)=N/OC(=O)Cc2cccs2)cc1OC,,inactive: -0.382%
Cc1cc(-n2c(C)cc(C(=O)CSc3nnnn3-c3ccc(Cl)cc3)c2C)no1,"inconclusive: 29.1 µM [inhibitor, single point]",

# An excerpt from above in order of count of non-hydrogen atoms, falling.
SMILES,Potency,"activity change, negative = inhibition"
COc1ccc(N2CCN(c3ncnc4c3nnn4Cc3ccccc3Cl)CC2)cc1,,inactive: 2.65%
C=C1CCC[C@]2(C)C[C@H]3OC(=O)C(CNC(CC)CO)[C@H]3CC12 (stereo not given in full),,inactive: -11.2%
COc1ccc(CCC(=O)N/N=C\c2cccs2)cc1,"inconclusive: 1.16 µM [inhibitor, full curve]",
CCNC(=S)Nc1ccc(Cl)c([N+](=O)[O-])c1,"inconclusive: 2.82 µM [inhibitor, partial curve, poor fit]",

# Continuation.

SMILES,Potency,"activity change, negative = inhibition"
COc1cccc(C2=NO[C@@H]3C(=O)N(Cc4ccccc4)C(=O)[C@H]23)c1OC,,inactive: 5.11%
COC(=O)c1ccc2nc(NC(=O)CSCC(=O)OCC(=O)c3ccccc3)sc2c1,,inactive: 3.07%
COc1ccc(C(=O)CSC#N)cc1OC,"inconclusive: 7.94 µM [inhibitor, partial curve, poor fit]",
O=C(Cc1cccs1)Nc1ccc(F)c(F)c1,,inactive: -1.22%
COc1ccc(NS(=O)(=O)c2cccc(C(=O)NCC3(N4CCOCC4)CCCCC3)c2)cc1,"inconclusive: 1.26 µM [inhibitor, single point]",
CCCN(CCC)S(=O)(=O)c1ccc(C(=O)N2CCCc3ccccc32)cc1,"inconclusive: 14.6 µM [inhibitor, partial curve, poor fit]",
COc1ccc(C(=O)OCc2cc(C)ccc2C)cc1S(=O)(=O)N1CCCC1,"inconclusive: 10 µM [inhibitor, single point]",
COc1ccc(CCNC(=O)C(=O)NCC2OCCN2S(=O)(=O)c2ccc3c(c2)OCCO3)cc1 (stereo not given),"inconclusive: 15.8 µM [inhibitor, single point]",
C=CCc1cc2c(oc(=O)c3ccccc32)c(C)c1O,,inactive: -20.5% [at 46.1 µM]
Cc1ccc(S(=O)(=O)c2nnn3c2nc(NC2CCCCC2)c2sccc23)cc1C,"inconclusive: 35.5 µM [inhibitor, single point]",
Cc1csc(NC(=O)Nc2ccccc2[N+](=O)[O-])n1,"inconclusive: 10 µM [inhibitor, partial curve, poor fit]",
Cc1ccc(NC(=O)c2nc(S(C)(=O)=O)ncc2N(Cc2ccco2)Cc2ccco2)cc1,,inactive: -18.6% [at 46.1 µM]
Cc1ccc(C(=O)COC(=O)c2ccc3c(c2)C(=O)N(c2cccc4ncccc24)C3=O)cc1,"inconclusive: 16.4 µM [inhibitor, partial curve, poor fit]",
C/C(=N\Nc1cccc2cccnc12)c1ccc[nH]1,"inconclusive: 1.26 µM [activator, single point]",
CCOC(=O)c1ccc(NC(=S)N(CCN2CCCCCC2)Cc2cccs2)cc1,"inconclusive: 14.1 µM [inhibitor, single point]",
CCCCN(C)C(=O)c1ccc2c(c1)NC(=O)C(CC(C)C)N2 (stereo not given),,inactive: 3.25% [at 46.1 µM]
COc1ccc(-c2noc(CC(=O)N(C)c3cc(Cl)c(OC)cc3OC)n2)cc1,,inactive: -2.23% [at 46.1 µM]
CSc1cccc(NC(=O)c2sc3nc4n(c(=O)c3c2C)CCC4)c1,"inconclusive: 35.5 µM [inhibitor, single point]",
Cc1ccc(C(=O)N/C(=C\C=C\c2ccccc2)C(=O)NCc2ccco2)cc1,"inconclusive: 35.5 µM [inhibitor, single point]",
Cc1cnc(C=NNC(N)=S)c2cccc(N)c12,active: 8.91 µM,
COc1ccc(-c2nc(-c3ccccc3)no2)c(OC)c1,active: 1.64 µM,
COc1ccc(N(C)S(=O)(=O)c2cccc(C(=O)NC3CCC(C)CC3)c2)cc1 (stereo not given),"inconclusive: 7.94 µM [inhibitor, partial curve, poor fit]",
